In patent US20090149377:
At least one result comes from cells or an extract, where the contact may be indirect. For some of these results: Where a protein sequence is shown, tags need not be part of it.

Legend:
Assay in all cases: binding assay
MGC14595 (Homo sapiens) = target: T1, MGC14595 (Homo sapiens) (UniProt Q9BRU9); settings: yeast three-hybrid; protein in cells; protein details: GAL4 activation domain fusion; label: 5' 32P (EMSA)
T1 sequence (looked up, limits assumed): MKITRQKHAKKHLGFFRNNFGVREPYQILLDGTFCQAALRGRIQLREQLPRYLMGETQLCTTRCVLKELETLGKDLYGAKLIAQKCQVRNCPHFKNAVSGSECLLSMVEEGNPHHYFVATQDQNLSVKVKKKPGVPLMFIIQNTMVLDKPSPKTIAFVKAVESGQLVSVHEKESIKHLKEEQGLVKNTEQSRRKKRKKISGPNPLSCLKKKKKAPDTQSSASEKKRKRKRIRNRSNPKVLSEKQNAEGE

[1] = target: Ribosomal protein L41 (Homo sapiens) (UniProt P62945); settings: yeast three-hybrid; protein in cells; protein details: GAL4 activation domain fusion; label: 5' 32P (EMSA)
[2] = target: DKFZP564M182 (Homo sapiens) (UniProt O76021); settings: yeast three-hybrid; protein in cells; protein details: GAL4 activation domain fusion; label: 5' 32P (EMSA)
[3] = target: Ribosomal protein S13 (Homo sapiens) (UniProt P62277); settings: yeast three-hybrid; protein in cells; protein details: GAL4 activation domain fusion; label: 5' 32P (EMSA)
RPL26 d1 (Homo sapiens) = RPL26 d1 (Homo sapiens) (UniProt P61254); settings: binding stated to correlate with p53 induction; assay not specified; protein in cells; protein details: EGFP; label: 5' 32P (EMSA)
RPL26 d7 (Homo sapiens) = RPL26 d7 (Homo sapiens) (UniProt P61254); settings: binding stated to correlate with p53 induction; assay not specified; protein in cells; protein details: EGFP; label: 5' 32P (EMSA)
[4] = target: Ribosomal protein S3a (Homo sapiens) (UniProt P61247); settings: yeast three-hybrid; protein in cells; protein details: GAL4 activation domain fusion; label: 5' 32P (EMSA)
RPL26 (Homo sapiens) = RPL26 (Homo sapiens) (UniProt P61254); settings: protein in cells, protein details: GAL4 activation domain fusion (yeast three-hybrid)
[5] = target: T2, Nucleostemin (Homo sapiens) (UniProt Q9BVP2); settings: yeast three-hybrid; protein in cells; protein details: GAL4 activation domain fusion; label: 5' 32P (EMSA)
T2 sequence (looked up, limits assumed): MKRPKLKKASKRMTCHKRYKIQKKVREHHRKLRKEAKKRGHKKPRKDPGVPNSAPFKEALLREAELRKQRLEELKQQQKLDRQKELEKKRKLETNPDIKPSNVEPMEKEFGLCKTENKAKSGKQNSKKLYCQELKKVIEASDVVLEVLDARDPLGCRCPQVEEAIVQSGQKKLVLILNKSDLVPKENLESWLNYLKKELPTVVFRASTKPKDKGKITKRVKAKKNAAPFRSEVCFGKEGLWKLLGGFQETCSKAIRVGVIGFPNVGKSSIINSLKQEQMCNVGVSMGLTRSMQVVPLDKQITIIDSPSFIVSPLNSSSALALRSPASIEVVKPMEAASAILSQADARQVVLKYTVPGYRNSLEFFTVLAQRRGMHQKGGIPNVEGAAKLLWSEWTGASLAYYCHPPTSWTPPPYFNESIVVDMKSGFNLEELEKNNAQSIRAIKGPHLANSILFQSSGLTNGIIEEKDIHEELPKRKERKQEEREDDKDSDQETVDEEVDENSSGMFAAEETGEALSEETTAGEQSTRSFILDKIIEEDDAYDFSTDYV

[6] = target: Ribosomal protein L5 (Homo sapiens) (UniProt P46777); settings: yeast three-hybrid; protein in cells; protein details: GAL4 activation domain fusion; label: 5' 32P (EMSA)
RPL26 d5 (Homo sapiens) = RPL26 d5 (Homo sapiens) (UniProt P61254); settings: binding stated to correlate with p53 induction; assay not specified; protein in cells; protein details: EGFP; label: 5' 32P (EMSA)
CCT5 (Homo sapiens) = CCT5 (Homo sapiens) (UniProt P48643); settings: yeast three-hybrid; protein in cells; protein details: GAL4 activation domain fusion; label: 5' 32P (EMSA)
RPL26 d4 (Homo sapiens) = RPL26 d4 (Homo sapiens) (UniProt P61254); settings: binding stated to correlate with p53 induction; assay not specified; protein in cells; protein details: EGFP; label: 5' 32P (EMSA)
[7] = target: Ribosomal protein S7 (Homo sapiens) (UniProt P62081); settings: yeast three-hybrid; protein in cells; protein details: GAL4 activation domain fusion; label: 5' 32P (EMSA)
RPL26 d2 (Homo sapiens) = RPL26 d2 (Homo sapiens) (UniProt P61254); settings: bound 5'UTR but did not induce p53; binding assay not specified; protein in cells; protein details: EGFP; label: 5' 32P (EMSA)

Measured: binding result

GGUUUUCCCCUCCCAUGUGCUCAAGACUGGCGCUAAAAGUUUUGAGCUUCUCAAAAGUCUAGAGCCACCGUCCAGGGAGCAGGUAGCUGCUGGGCUCCGGGGACACUUUGCGUUCGGGCUGGGAGCGUGCUUUCCACGACGGUGACACGCUUCCCUGGAUUGGCAGCCAGACUGCCUUCCGGGUCACUGCCAU [p53 5'UTR (-191 to 2)]
binds: MGC14595 (Homo sapiens) | [1] | [2] | [3] | RPL26 d1 (Homo sapiens) | RPL26 d7 (Homo sapiens) | [4] | RPL26 (Homo sapiens); yeast three-hybrid, label: 5' 32P (EMSA) | [5] | [6] | RPL26 d5 (Homo sapiens) | CCT5 (Homo sapiens) | RPL26 d4 (Homo sapiens) | [7] | RPL26 d2 (Homo sapiens)

UCGGGCUGGGAGCGUGCUUUCCACGACGGUGACACGCUUCCCUGGAUUGGCAGCCAGACUGCCUUCCGGGUCACUGCC [p53 5'UTR -78 to -1]
binds: RPL26 (Homo sapiens); yeast three-hybrid mapping, variant of p53 5'UTR (-191 to 2)
